Inhibition data for 7 molecules are collected here from ChEMBL document CHEMBL4513155, “CO-ADD screening of University of Sydney (Australia) compounds” (2021).

This is one part of the list. Entries with a potency or affinity are not part of this list.

For the assay, the system named is Pseudomonas aeruginosa. Particulars: Concentration 32 ug.mL-1; ASSAY_TEST Inhibition of Bacterial Growth; detection method Absorption (OD600); MEDIA CAMHB; plate type 384well; NBS; CORNING #3640; time 18 hr.
For `COC(COc1cncc2nnc(-c3ccc(C#N)cc3)n12)c1ccc(F)c(F)c1` (configuration not stated), the Inhibition came to 5.71%.
Turning to `Fc1ccc(CCOc2cncc3nnc(-c4ccc(C(F)(F)F)nc4)n23)cc1F`, the Inhibition is 7.52%.
In turn, `O.O=C1c2cccc3c(-n4cc(CN5CCCNCCN(Cc6cn(-c7ccc8c9c(cccc79)C(=O)N(CCCO)C8=O)nn6)CCCNCC5)nn4)ccc(c23)C(=O)N1CCCO.[Cl-].[Cl-].[Zn+2]` yielded an Inhibition of 13.01%.
The result for `CCN1C(=O)c2cccc3c(-c4cn(CCN5CCCNCCN(CCn6cc([C@]7(O)CC[C@H]8[C@@H]9CCc%10cc(O)ccc%10[C@H]9CC[C@@]87C)nn6)CCCNCC5)nn4)ccc(c23)C1=O.OCCN1CCN(CCCN2c3ccccc3Sc3ccc(Cl)cc32)CC1.[O-][Cl+3]([O-])([O-])[O-].[O-][Cl+3]([O-])([O-])[O-].[Zn+2]` reads 8.33%; that for `CN(C)C(COc1cncc2nnc(-c3ccc(C#N)cc3)n12)c1ccc(F)c(F)c1` (configuration not stated), 7.19%.
In the case of `N#Cc1ccc(-c2nnc3cncc(OCC(O)c4ccc(F)c(F)c4)n23)cc1` (configuration not stated), the Inhibition was determined as 8.24%.
Regarding `Fc1ccc(CCOc2cncc3nnc(-c4ccc(Cl)cc4)n23)cc1F`, the Inhibition is recorded as 4.4%.

Broadly, the Inhibition is the relative decrease from the control value, in per cent. The low end stands for a response near the control, the high end for a response far below the control.
